Experimental data taken from patent publication US20230310629A1, “BISPECIFIC ANTIBODY-DRUG CONJUGATES TARGETING EGFR AND MUC1 AND USES THEREOF” (Merck Patent GmbH, priority 2020, published 2023).
Entries after “also recorded” stand apart in the source; their conditions may differ.

Test system: human MUC1 peptide
Assay: PEPperMAP epitope mapping of anti-MUC1 antibodies
Type: binding
Settings: peptide microarray, antibody 1 μg/ml

B1: HT186-D11: parent anti-MUC1 antibody (Thie H. et al.) from which H02 was affinity matured (antibody, V domains shown)
VH: QMQLVQSEAELKKPGASVKVSCKASGYSFTGHYMHWVRQAPGQGLEWMGWIDPVTGGTKYAQNFQGWVTMTRDTSIRTAYLELSRLRSDDTAMYYCAREVTGDRGQFDKWGQGTLVTVAS
VL: QSVLTQPPSVSVAPGKTARITCGGNNIGSKSVHWYQQKPGQAPALVIYYGSNRPSGIPERFSGSNSGNTATLTISRVEAGDEADYYCQVWDSSSDWVFGGGTKLTVL
For B1, the “minimal consensus motif recognized (epitope)” value was “TRPAP”.

B2: 1993-H02: anti-MUC1 antibody variant from affinity maturation of HT186-D11, with HT186-D11 light chain; developed as scFv (antibody, V domains shown)
VH: QMQLVQSEAELKKPGASVKVSCKASGYSFTSHFMHWVRQAPGQGLEWMGWIDPVTGGTKYAQNFQGWVTMTRDTSIRTAYLELSRLRSDDTAMYYCAREARADRGQFDKWGQGTLVTVAS
VL: QSVLTQPPSVSVAPGKTARITCGGNNIGSKSVHWYQQKPGQAPALVIYYGSNRPSGIPERFSGSNSGNTATLTISRVEAGDEADYYCQVWDSSSDWVFGGGTKLTVL
B2 was tested, and the “minimal consensus motif recognized (epitope)” value (listed as H02) was “TRPAP; also recorded: DTRPAP”.
